Data as given in PubChem BioAssay AID1259405 (NCATS, 2018)
Shown is a random part of about 50,000 reagents tested. Of all reagents, about 4,000 (8%) got an active call. 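Mouse siRNA library applied to hamster cells; one well for each siRNA.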 Reagents against one gene are numbered here.

Purpose: 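Silenced genes that increase secreted GFP made by CHO cells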 (primary screen)
Cells: Chinese hamster CHO-K1 ovary cells with stable secreted eGFP expression
Knock-down reagent: single siRNA against mouse genes, 0.8 pmol siRNA per well (2 µl of 400 nM stock)
Time to read-out: 3 days
Detection: 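Percent of the per-plate non-targeting control median for intracellular GFP per well by laser scanning cytometry and for cell viability by ATP luminescence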
Reading the numbers: GFP, % of control: higher = more GFP per well, higher productivity; viability (ATP), % of control: higher = more viable cells (more ATP)
Rule for the call: 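Called active when intracellular GFP, relative to negative control, is at or above 120%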

For Ppp1cb (protein phosphatase 1 catalytic subunit beta) #1, what was measured?
GFP, % of control: 96.1; viability (ATP), % of control: 91.6; Call: inactive

Which result is listed for Ppp1cb (protein phosphatase 1 catalytic subunit beta) #2?
GFP, % of control: 77.2; viability (ATP), % of control: 74.1; Call: inactive

For Ppp1cb (protein phosphatase 1 catalytic subunit beta) #3, how do the results read?
GFP, % of control: 173; viability (ATP), % of control: 80.2; Call: active

How did the screen score 4930555G01Rik (RIKEN cDNA 4930555G01 gene) #1?
GFP, % of control: 62.4; viability (ATP), % of control: 111; Call: inactive

How did the screen score 4930555G01Rik (RIKEN cDNA 4930555G01 gene) #2?
GFP, % of control: 16.5; viability (ATP), % of control: 59.1; Call: inactive

With 4930555G01Rik (RIKEN cDNA 4930555G01 gene) #3, what was measured?
GFP, % of control: 55.3; viability (ATP), % of control: 66.9; Call: inactive

For Dyrk1a, what does the deposit list?
GFP, % of control: 142; viability (ATP), % of control: 68.1; Call: active

With Ccr4 (C-C motif chemokine receptor 4) #1, what does the deposit list?
GFP, % of control: 31.7; viability (ATP), % of control: 40.7; Call: inactive

What is on record for Ccr4 (C-C motif chemokine receptor 4) #2?
GFP, % of control: 75.9; viability (ATP), % of control: 74.8; Call: inactive

What is on record for Ccr4 (C-C motif chemokine receptor 4) #3?
GFP, % of control: 97.5; viability (ATP), % of control: 105; Call: inactive

What is on record for Zfp280d (zinc finger protein 280D) #1?
GFP, % of control: 29.8; viability (ATP), % of control: 56.9; Call: inactive

What did the screen give for Zfp280d (zinc finger protein 280D) #2?
GFP, % of control: 85.7; viability (ATP), % of control: 70.7; Call: inactive

With Zfp280d (zinc finger protein 280D) #3, what was measured?
GFP, % of control: 91; viability (ATP), % of control: 77.7; Call: inactive

What did the screen give for Serpinb9g (serine (or cysteine) peptidase inhibitor, clade B, member 9g) #1?
GFP, % of control: 78.4; viability (ATP), % of control: 88; Call: inactive

With Serpinb9g (serine (or cysteine) peptidase inhibitor, clade B, member 9g) #2, how do the results read?
GFP, % of control: 36.5; viability (ATP), % of control: 52.7; Call: inactive

Which result is listed for Serpinb9g (serine (or cysteine) peptidase inhibitor, clade B, member 9g) #3?
GFP, % of control: 104; viability (ATP), % of control: 111; Call: inactive

What did the screen give for Idh3b (isocitrate dehydrogenase 3 (NAD+) beta) #1?
GFP, % of control: 120; viability (ATP), % of control: 74.8; Call: inactive

What is on record for Idh3b (isocitrate dehydrogenase 3 (NAD+) beta) #2?
GFP, % of control: 122; viability (ATP), % of control: 70.3; Call: active

With Idh3b (isocitrate dehydrogenase 3 (NAD+) beta) #3, what does the deposit list?
GFP, % of control: 127; viability (ATP), % of control: 92.4; Call: active

What did the screen give for Drc8 (dynein regulatory complex subunit 8) #1?
GFP, % of control: 85.2; viability (ATP), % of control: 64.2; Call: inactive

How did the screen score Drc8 (dynein regulatory complex subunit 8) #2?
GFP, % of control: 116; viability (ATP), % of control: 58.1; Call: inactive

For Drc8 (dynein regulatory complex subunit 8) #3, what was measured?
GFP, % of control: 59.6; viability (ATP), % of control: 59.7; Call: inactive

For Klrb1f (killer cell lectin-like receptor subfamily B member 1F) #1, what does the deposit list?
GFP, % of control: 66.2; viability (ATP), % of control: 54.4; Call: inactive

For Klrb1f (killer cell lectin-like receptor subfamily B member 1F) #2, what does the deposit list?
GFP, % of control: 77.6; viability (ATP), % of control: 80.1; Call: inactive

How did the screen score Klrb1f (killer cell lectin-like receptor subfamily B member 1F) #3?
GFP, % of control: 6.66; viability (ATP), % of control: 17.3; Call: inactive

Which result is listed for Rpp25 (ribonuclease P/MRP 25 subunit) #1?
GFP, % of control: 53.2; viability (ATP), % of control: 59.4; Call: inactive

With Rpp25 (ribonuclease P/MRP 25 subunit) #2, what was measured?
GFP, % of control: 31.3; viability (ATP), % of control: 30.4; Call: inactive

How did the screen score Rpp25 (ribonuclease P/MRP 25 subunit) #3?
GFP, % of control: 61.9; viability (ATP), % of control: 67; Call: inactive

Called active (from the list above):
Ppp1cb (protein phosphatase 1 catalytic subunit beta) #3 — GFP, % of control: 173; viability (ATP), % of control: 80.2; Call: active
Dyrk1a — GFP, % of control: 142; viability (ATP), % of control: 68.1; Call: active
Idh3b (isocitrate dehydrogenase 3 (NAD+) beta) #2 — GFP, % of control: 122; viability (ATP), % of control: 70.3; Call: active
Idh3b (isocitrate dehydrogenase 3 (NAD+) beta) #3 — GFP, % of control: 127; viability (ATP), % of control: 92.4; Call: active
